Record: PubChem BioAssay AID1508597 (Cure First, 2020)
Shown is a random part of the about 2,100 reagents, in one setting of the screen. 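Calls flag viability under 80% in either arm, not effects specific to rucaparib; the reference for percent is not stated.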 A number with no mark means an inactive call. Not stated in the record: the 100% reference.

Test: 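Survival screen with siRNA in ovarian cancer cells derived from patients, with or without rucaparib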 (primary screen)
System: human ovarian carcinoma lines grown from tumours: OCI-P5x (papillary serous) and OCI-C5x (clear cell)
Reagent: siRNA pool against human genes, 1.25 pmol siRNA per well
Timing: 72 h or 96 h, depending on the cell culture
Challenge: rucaparib 20 µM (about IC30) or vehicle, present until read-out
Rucaparib or vehicle: Vehicle
Cell line: OCI-P5x (serous)
Measurement: 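ATP luminescence measured at 72 or 96 h according to the culture, then normalised and expressed as percent viability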
Reading the numbers: viability, normalised: higher = more viable cells remaining
Rule for the call: 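a well counts as a hit if its normalised viability is under 80 percent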
Calls: active = viability under 80%; inactive = viability 80% or more

STK40 (serine/threonine kinase 40), technical replicate 1 scored viability, normalised (%) = 86.6.
STK40 (serine/threonine kinase 40), technical replicate 2 scored viability, normalised (%) = 93.
With STK40 (serine/threonine kinase 40), technical replicate 3, the entry reads viability, normalised (%) = 84.2.
With RCOR2 (REST corepressor 2), technical replicate 1, the values are viability, normalised (%) = 68 (active).
With RCOR2 (REST corepressor 2), technical replicate 2, the values are viability, normalised (%) = 73 (active).
With RCOR2 (REST corepressor 2), technical replicate 3, the values are viability, normalised (%) = 155.
RNASEL (ribonuclease L), technical replicate 1 showed viability, normalised (%) = 81.1.
RNASEL (ribonuclease L), technical replicate 2 gave viability, normalised (%) = 68.6 (active).
RNASEL (ribonuclease L), technical replicate 3 gave viability, normalised (%) = 65.2 (active).
PRKAB2 (protein kinase AMP-activated non-catalytic subunit beta 2), technical replicate 1 scored viability, normalised (%) = 71.9 (active).
PRKAB2 (protein kinase AMP-activated non-catalytic subunit beta 2), technical replicate 2 showed viability, normalised (%) = 101.
With PRKAB2 (protein kinase AMP-activated non-catalytic subunit beta 2), technical replicate 3, the values are viability, normalised (%) = 97.3.
DGKQ (diacylglycerol kinase theta), technical replicate 1 scored viability, normalised (%) = 62.8 (active).
DGKQ (diacylglycerol kinase theta), technical replicate 2 scored viability, normalised (%) = 59.1 (active).
With DGKQ (diacylglycerol kinase theta), technical replicate 3 the deposit lists viability, normalised (%) = 69.6 (active).
TPP1 (tripeptidyl peptidase 1), technical replicate 1 showed viability, normalised (%) = 64.7 (active).
TPP1 (tripeptidyl peptidase 1), technical replicate 2 showed viability, normalised (%) = 65.4 (active).
TPP1 (tripeptidyl peptidase 1), technical replicate 3 scored viability, normalised (%) = 65.1 (active).

Reformatted: entries from further up
| gene knocked down | technical replicate | viability, normalised (%) |
| --- | --- | --- |
| RNASEL (ribonuclease L) | 1 | 81.1 |
| RNASEL (ribonuclease L) | 2 | 68.6 (active) |
| RNASEL (ribonuclease L) | 3 | 65.2 (active) |
| PRKAB2 (protein kinase AMP-activated non-catalytic subunit beta 2) | 1 | 71.9 (active) |

Next entries follow.
With FBXO5 (F-box protein 5), technical replicate 1, the values are viability, normalised (%) = 61.1 (active).
FBXO5 (F-box protein 5), technical replicate 2 showed viability, normalised (%) = 60 (active).
FBXO5 (F-box protein 5), technical replicate 3 gave viability, normalised (%) = 65.2 (active).
For MAPK4 (mitogen-activated protein kinase 4), technical replicate 1, the values are viability, normalised (%) = 114.
For MAPK4 (mitogen-activated protein kinase 4), technical replicate 2 the deposit lists viability, normalised (%) = 108.
With MAPK4 (mitogen-activated protein kinase 4), technical replicate 3, the entry reads viability, normalised (%) = 100.
For PHF3 (PHD finger protein 3), technical replicate 1, the values are viability, normalised (%) = 57.2 (active).
PHF3 (PHD finger protein 3), technical replicate 2 scored viability, normalised (%) = 65.5 (active).
With PHF3 (PHD finger protein 3), technical replicate 3 the deposit lists viability, normalised (%) = 87.6.
ERCC6 (ERCC excision repair 6, chromatin remodeling factor), technical replicate 1 scored viability, normalised (%) = 69 (active).
With ERCC6 (ERCC excision repair 6, chromatin remodeling factor), technical replicate 2, the entry reads viability, normalised (%) = 71.2 (active).
For ERCC6 (ERCC excision repair 6, chromatin remodeling factor), technical replicate 3 the deposit lists viability, normalised (%) = 67.2 (active).
EID1 (EP300 interacting inhibitor of differentiation 1), technical replicate 1 scored viability, normalised (%) = 69.7 (active).
EID1 (EP300 interacting inhibitor of differentiation 1), technical replicate 2 scored viability, normalised (%) = 86.3.
EID1 (EP300 interacting inhibitor of differentiation 1), technical replicate 3 scored viability, normalised (%) = 114.
With RPS6KA4 (ribosomal protein S6 kinase A4), technical replicate 1 the deposit lists viability, normalised (%) = 86.4.
With RPS6KA4 (ribosomal protein S6 kinase A4), technical replicate 2, the entry reads viability, normalised (%) = 66.6 (active).
RPS6KA4 (ribosomal protein S6 kinase A4), technical replicate 3 scored viability, normalised (%) = 96.6.
RAG1 (recombination activating 1), technical replicate 1 scored viability, normalised (%) = 61.8 (active).
For RAG1 (recombination activating 1), technical replicate 2 the deposit lists viability, normalised (%) = 59.3 (active).
RAG1 (recombination activating 1), technical replicate 3 scored viability, normalised (%) = 72.3 (active).
For RIC8A (RIC8 guanine nucleotide exchange factor A), technical replicate 1, the entry reads viability, normalised (%) = 55.2 (active).
For RIC8A (RIC8 guanine nucleotide exchange factor A), technical replicate 2 the deposit lists viability, normalised (%) = 53.7 (active).
With RIC8A (RIC8 guanine nucleotide exchange factor A), technical replicate 3, the values are viability, normalised (%) = 72.6 (active).
